# Test results taken from PubChem BioAssay AID2685 (National Center for Advancing Translational Sciences (NCATS), 2010).
# The other results are listed elsewhere or left out. The main result of the screen is listed elsewhere. These columns were measured beside it and carry no call. The list favours compounds with an active or inconclusive main result. Words in brackets tell the shape of the fitted curve; partial curves, single points and poor fits give uncertain potencies.
# Assay: qHTS Assay for Lipid Storage Modulators in Drosophila S3 Cells;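 as to cell number change: cells counted by Cell Tracker Red CMTPX staining in the red channel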
# Settings: BODIPY lipid droplet fluorescence, 18-24 h; for cell number change: measured here: cell count max response, cells fed with added oleic acid
# Summary of the method: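 Drosophila S3 cells loaded with oleic acid (400 uM, as added) and compounds at several concentrations; lipid droplets imaged by 488-nm laser-scanning cytometry, 500–530 nm intensity and object ratio to cell channel. Percent activity normalized to 20 uM Triacsin C.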
# [1] = measured here: lipid fluorescence (Fed channel) AC50, cells fed with added oleic acid
# [2] = measured here: cell number channel AC50, cells fed with added oleic acid
smiles,measurement,setting,value
CCCCN(CC)S(=O)(=O)c1ccc2c(c1)CCCN2C(C)=O,cell number change,,22.9%
same,AC50,[1],"1.46 µM [rising, partial curve]"
COc1ccc(NC(=O)C2CCN(S(=O)(=O)c3cccc4nonc34)CC2)cc1,cell number change,,183%
same,AC50,[2],"29.1 µM [rising, single point]"
CCOC(=O)CSC1=C(C#N)C(c2ccco2)C(C(=O)Nc2cccc(C(F)(F)F)c2)=C(C)N1 (centres undefined),cell number change,,-13.5%
same,AC50,[1],"0.231 µM [falling, full curve]"
CCOC(=O)c1c(S(=O)(=O)NCC(=O)Nc2ccccc2)c(C)n(C)c1C,cell number change,,92.4%
same,AC50,[2],"29.1 µM [rising, single point]"
O=C1c2cccc3c(N4CCCCC4)ccc(c23)C(=O)N1c1cccc(O)c1,cell number change,,-95.9%
same,AC50,[2],"10.3 µM [falling, partial curve, poor fit]"
CCOC(=O)C1CCN(C(=O)c2ccccc2NS(=O)(=O)c2cc(C)ccc2C)CC1,cell number change,,22.1%
same,AC50,[1],"0.259 µM [rising, full curve, poor fit]"
COc1ccc(CNC(=O)COC(=O)/C=C/c2cccc(Br)c2)cc1,cell number change,,12.3%
same,AC50,[2],"0.82 µM [falling, full curve, poor fit]"
same,AC50,[1],"10.3 µM [falling, single point]"
CN(C)S(=O)(=O)c1ccc(Cl)c(NC(=O)CN2CCNC(=O)C2)c1,cell number change,,-15.6%
CCOC(=O)C1=C(C)NC(SCc2cc(=O)[nH][nH]2)=C(C#N)C1c1cccs1 (centres undefined),cell number change,,7.78%
same,AC50,[1],"0.651 µM [falling, single point]"
CCOc1ccc(N=CNc2ccc(OCC)cc2)cc1,cell number change,,1.42%
same,AC50,[1],"6.51 µM [rising, single point]"
NCCCCCc1nnc(SCC(N)=O)o1,cell number change,,-67.7%
same,AC50,[2],"29.1 µM [falling, single point]"
same,AC50,[1],"29.1 µM [falling, single point]"
COc1cc(NC(=O)c2cccc3c2C(=O)N(Cc2cccnc2)C3)cc(OC)c1OC,cell number change,,7.22%
same,AC50,[1],"0.231 µM [rising, full curve, poor fit]"
COC(=O)c1ccc(Oc2c(C(F)(F)F)oc3c(CN4CCN(C)CC4)c(O)ccc3c2=O)cc1,cell number change,,-12.4%
same,AC50,[2],"0.461 µM [falling, partial curve, poor fit]"
same,AC50,[1],"0.259 µM [falling, full curve, poor fit]"
CCCNc1c(NS(=O)(=O)c2ccc(C)cc2C)c(=O)oc2ccccc12,cell number change,,-19.5%
same,AC50,[2],"2.59 µM [falling, single point]"
same,AC50,[1],"18.4 µM [rising, single point]"
Cc1cc(C)c2c(N)c(C(=O)NCC3CCCCC3)sc2n1,cell number change,,34.1%
same,AC50,[2],"0.058 µM [rising, full curve]"
same,AC50,[1],"0.651 µM [rising, partial curve]"
COc1ccc(NC(=O)CC2SC(=NCC3CCCO3)NC2=O)cc1 (centres undefined),cell number change,,5.19%
same,AC50,[1],"16.4 µM [rising, partial curve, poor fit]"
O=C(Nc1ccccc1N1CCCC1)c1ccc([N+](=O)[O-])o1,cell number change,,-41.6%
same,AC50,[2],"7.31 µM [falling, full curve]"
same,AC50,[1],"3.26 µM [falling, partial curve]"
Cc1cc(C)c(NC(=O)Cn2nnc(C(=O)NCCc3ccccc3)c2N)c(C)c1,cell number change,,20.9%
COc1cc([C@@H]2Oc3cc(C4Oc5cc(O)cc(O)c5C(=O)[C@H]4O)ccc3O[C@H]2CO)ccc1O (some centres undefined),cell number change,,6.7%
CCN(CC)S(=O)(=O)c1cccc(C(=O)N/N=C(\C)c2ccc(O)cc2O)c1,cell number change,,-32%
same,AC50,[2],"29.1 µM [falling, single point]"
same,AC50,[1],"29.1 µM [falling, single point]"
O=C(/C=C/c1cccs1)c1cc(Cl)ccc1OC(=O)N1CCOCC1,AC50,[1],"29.1 µM [falling, partial curve]"
O=C(N/N=C/c1ccc2c(c1)OCO2)c1ccc2c(c1)OCCO2,cell number change,,39.1%
same,AC50,[2],"0.13 µM [rising, full curve, poor fit]"
same,AC50,[1],"0.00517 µM [rising, full curve, poor fit]"
CC(=O)C(=Nc1ccc(Cl)cc1Cl)NNc1cccc(Cl)c1,cell number change,,-26%
same,AC50,[2],"3.66 µM [rising, single point]"
same,AC50,[1],"6.51 µM [rising, single point]"
Cn1c(C2CCCN2C(=O)OC(C)(C)C)n[nH]c1=S (centres undefined),cell number change,,8.97%
same,AC50,[1],"0.146 µM [rising, single point]"
Cc1cccc(C(=O)N2CCC(Cc3ccccc3)CC2)c1[N+](=O)[O-],cell number change,,75.7%
same,AC50,[2],"29.1 µM [rising, single point]"
Cc1cccc(Nc2ncnc3ccc(Br)cc23)c1,cell number change,,-7.17%
same,AC50,[1],"0.259 µM [rising, partial curve]"
CCOc1cc(N2CCOCC2)c(OCC)cc1NC(=O)c1cccc(N(C)C)c1,cell number change,,37.4%
same,AC50,[2],"18.4 µM [rising, single point]"
same,AC50,[1],"8.2 µM [rising, partial curve, poor fit]"
CC(C)(C)C(=O)Nc1ccccc1N1CCN(C(=O)c2ccc(Cl)cc2)CC1,cell number change,,178%
same,AC50,[2],"18.4 µM [rising, partial curve]"
same,AC50,[1],"14.6 µM [rising, partial curve]"
Cc1ccc(NC(=O)c2cnn(-c3ccccc3)c2NC(=O)c2ccco2)cc1C,cell number change,,-1.05%
same,AC50,[1],"0.651 µM [falling, full curve]"
Cc1ccc(OCCN(C)C(=O)C2CCC(=O)N(CCCN3CCOCC3)C2)cc1 (centres undefined),cell number change,,-2.97%
same,AC50,[1],"29.1 µM [rising, single point]"
CC(C)(CO)CNC1CCCN(C2Cc3ccccc3C2)C1 (centres undefined),cell number change,,0.246%
COc1ccc(CCn2c(Br)nc3c2c(=O)[nH]c(=O)n3C)cc1,cell number change,,-8.23%
Cc1cccc(OCC(=O)NNC(=O)CSc2ncc(C#N)c(N)n2)c1,cell number change,,12.9%
CC(c1ccco1)N(C(=O)Nc1ccccc1)C1CCCCC1 (centres undefined),cell number change,,-25%
same,AC50,[2],"0.0058 µM [falling, full curve, poor fit]"
same,AC50,[1],"23.1 µM [falling, partial curve]"
CCn1nc(NS(=O)(=O)c2cccc3nonc23)c2cc3ccc(C)cc3nc21,cell number change,,30.1%
same,AC50,[2],"2.59 µM [rising, partial curve]"
CCC(C)Sc1ccc([C@@H]2[C@@H]3C(=O)N(C)C(=O)[C@@H]3[C@]3(C(=O)OC)CCCCN23)cc1OC (some centres undefined),cell number change,,-15.2%
same,AC50,[1],"8.2 µM [falling, partial curve]"
CC(NC(=O)CN(Cc1ccccc1)S(=O)(=O)c1ccccc1)c1cccnc1 (centres undefined),cell number change,,2.53%
same,AC50,[1],"0.013 µM [rising, full curve, poor fit]"
O=C(Cn1cc(C(=S)N2CCOCC2)c2ccccc21)N1CCOCC1,cell number change,,-29.7%
same,AC50,[2],"1.64 µM [falling, full curve, poor fit]"
same,AC50,[1],"6.51 µM [falling, partial curve, poor fit]"
Cc1ccc(-c2n[nH]c(=S)n2Cc2ccccc2)cc1,AC50,[2],"1.3 µM [rising, full curve, poor fit]"
CN(N)C(=S)Nc1ccc(Cl)cc1,cell number change,,39.4%
same,AC50,[2],"0.00461 µM [rising, full curve, poor fit]"
Cc1c(Cl)cccc1NC(=O)NCc1ccc(C)n1C,cell number change,,14.1%
same,AC50,[1],"0.184 µM [rising, full curve, poor fit]"
NNC(=O)c1csc(CS(=O)(=O)c2ccc(Cl)cc2)n1,AC50,[1],"29.1 µM [rising, single point]"
CCCCN(C(=O)C1=COCCO1)c1c(N)n(CCC)c(=O)[nH]c1=O,AC50,[1],"29.1 µM [rising, single point]"
COc1ccccc1OCc1ccc(C(=O)NCC(C)C)o1,cell number change,,18.6%
COCC(C)n1c(SCc2nc3ccccc3c(=O)[nH]2)nc2ccccc2c1=O (centres undefined),cell number change,,-6.15%
COc1ccc(N(C(=O)CNC(=O)c2ccco2)C(C(=O)NC2CCCC2)c2ccc(C)o2)cc1 (centres undefined),cell number change,,6.67%
Cc1nn(Cc2ccccc2Cl)c(C)c1NC(=O)CCCn1nc([N+](=O)[O-])c(Cl)c1C,cell number change,,-0.151%
CC(C)c1ccc(NC(=O)C2CC(=O)N(C3CCCC3)C2)cc1 (centres undefined),cell number change,,0.84%
O=C(CCNC(=O)c1ccccc1Cl)Nc1ccc(Br)c(C(F)(F)F)c1,cell number change,,22.7%
same,AC50,[1],"10.3 µM [rising, partial curve]"
O=C(c1cccc(S(=O)(=O)N2CCCCC2)c1)N1CCOCC1,cell number change,,-8.02%
CCOc1nc(NCc2ccco2)nc(Nc2ccccc2F)n1,cell number change,,-59.1%
same,AC50,[2],"20.6 µM [falling, partial curve, poor fit]"
same,AC50,[1],"29.1 µM [falling, partial curve, poor fit]"
O=C(Nc1nc(N2C(=O)c3ccccc3C2=O)n(-c2ccccc2)n1)c1ccc(F)cc1,cell number change,,5.94%
same,AC50,[1],"0.13 µM [falling, full curve, poor fit]"
COc1cc(OC)c(OC)cc1CN1CCc2ccccc2C1,cell number change,,-78.2%
same,AC50,[2],"20.6 µM [falling, partial curve]"
same,AC50,[1],"29.1 µM [falling, single point]"
Cc1ccc(NC(=O)c2cccc(C(F)(F)F)c2)cc1NC(=O)c1[nH]cnc1C(N)=O,AC50,[1],"0.00461 µM [falling, full curve, poor fit]"
O=C(NC1CCCCC1)c1n[nH]c2c1CC(c1ccccc1)CC2 (centres undefined),cell number change,,-64.5%
same,AC50,[2],"18.4 µM [falling, partial curve]"
CNC(=S)Nc1ccc(Cc2ccncc2)cc1,cell number change,,3.7%
same,AC50,[2],"6.51 µM [rising, single point]"
COc1ccc(C(=O)Nc2ccccc2C(=O)NC(C)C)cc1OC,AC50,[2],"6.51 µM [rising, partial curve]"
same,AC50,[1],"1.16 µM [rising, full curve]"
CCOc1ccc(N(C)S(=O)(=O)c2cnc[nH]2)cc1,cell number change,,-9.89%
same,AC50,[1],"6.51 µM [rising, single point]"

# A different layout for part of the listing above:
smiles	measurement	setting	value
CC(c1ccco1)N(C(=O)Nc1ccccc1)C1CCCCC1 (centres undefined)	AC50	[1]	23.1 µM [falling, partial curve]
CCn1nc(NS(=O)(=O)c2cccc3nonc23)c2cc3ccc(C)cc3nc21	cell number change		30.1%
same	AC50	[2]	2.59 µM [rising, partial curve]

# A different layout for part of the listing above:
smiles | measurement | setting | value
COc1cc(OC)c(OC)cc1CN1CCc2ccccc2C1 | AC50 | [2] | 20.6 µM [falling, partial curve]
same | AC50 | [1] | 29.1 µM [falling, single point]
